The list shows a part of the results.

This assay has as its target T1, OsSMF1 (Oryza sativa, UniProt Q6ZLB0 1-436).
T1 sequence: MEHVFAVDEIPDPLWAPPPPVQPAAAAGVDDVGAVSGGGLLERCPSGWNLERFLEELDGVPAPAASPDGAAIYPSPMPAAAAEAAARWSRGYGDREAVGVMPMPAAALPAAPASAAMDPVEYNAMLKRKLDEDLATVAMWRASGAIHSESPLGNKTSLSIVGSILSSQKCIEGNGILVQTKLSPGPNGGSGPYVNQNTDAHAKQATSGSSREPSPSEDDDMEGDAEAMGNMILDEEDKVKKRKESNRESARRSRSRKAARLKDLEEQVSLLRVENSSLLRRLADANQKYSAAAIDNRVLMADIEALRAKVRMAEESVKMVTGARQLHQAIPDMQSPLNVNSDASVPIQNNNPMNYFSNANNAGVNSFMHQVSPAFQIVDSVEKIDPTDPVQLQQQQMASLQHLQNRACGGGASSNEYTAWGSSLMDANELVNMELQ
In words: protein-binding microarray (RPBM); PBS, 2% BSA, 51.3 ng/ul salmon testes DNA, 50 uM zinc acetate, 200 nM TF, 25 C, 1 h; high values mean tight binding. The following applies: protein: recombinant; tags: N-terminal polyhistidine and DsRed monomer fusion (pET32a); chain copies: 2; label: CyDye5-dUTP incorporated in the synthesized complementary strand; 3' TTTTT single-stranded linker to array surface; dsDNA, one strand shown. An outline of the steps:
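Using Ni–NTA, transcription factors fused N-terminally to polyhistidine and DsRed were purified after expression in E. coli BL21-CodonPlus. These were incubated at 200 nM with a blocked, double-stranded custom Agilent array for 1 h at 25 °C in a buffer containing 50 µM zinc acetate, and the array was washed. The binding signal is per-feature fluorescence intensity (arbitrary units) on an Axon 4000B scanner.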
As to “GGTATCTCAATGACATGTAGTATCCACATGAGTCAATGACCGGAGTCACCTAGTGCAG”, the binding signal is 3320 fluorescence intensity (a.u.).

Turning to “GAATTTGAAGACCGACCTCTATACCGACAGCTGACTTGGGCGGAGTCACCTAGTGCAG”, the binding signal is 19700 fluorescence intensity (a.u.).

With “CGCCACATGACAATGACTGACAGGCTGGCCCCACGTCCTACGGAGTCACCTAGTGCAG”, the binding signal was 5210 fluorescence intensity (a.u.).

Take “GGTTAGGTGCCACATATTGCCACACAACATGTTAGGCATGCGGAGTCACCTAGTGCAG”: the binding signal is 3750 fluorescence intensity (a.u.).

Regarding “TTCCATGTGTCCCAGTTAAAGCAATTTGTTCCTGACAACACGGAGTCACCTAGTGCAG”, the binding signal is 3720 fluorescence intensity (a.u.).

As to “ACGGCTGTTGCCTGACGGGCTATAGTGGTTCTGTTTGACACGGAGTCACCTAGTGCAG”, the binding signal was 4460 fluorescence intensity (a.u.).

Consider “TCATCGATCTATTATGGACGTACAGTAAAAGGTCAGTCAGCGGAGTCACCTAGTGCAG”, for which the binding signal is 3620 fluorescence intensity (a.u.).

With “GCAAAGCTTCAATGACCTGACACATCCTTCCATTTCTACGCGGAGTCACCTAGTGCAG”, the binding signal is 5090 fluorescence intensity (a.u.).

Regarding “TGGTGCGCTCGTTAAGCCAGCTCGGTTTATGTTAGATCATCGGAGTCACCTAGTGCAG”, the binding signal is 3210 fluorescence intensity (a.u.).

In the case of “CTGTGTTAGCGTGCTCTACGTATTCGCGATAGACTTATATCGGAGTCACCTAGTGCAG”, the binding signal is 3150 fluorescence intensity (a.u.).

As for “ACCGTACGGCTCCTCCTACTCACCCTCAAACCAACGTGTCCGGAGTCACCTAGTGCAG”, the binding signal was 5680 fluorescence intensity (a.u.).

Consider “AAATGTGGTCGAACGATGTCGTAAGCTTGCGGTAATTGTACGGAGTCACCTAGTGCAG”, for which the binding signal is 3400 fluorescence intensity (a.u.).

In the case of “GCCTAATTACATCATGATTTGACAATGTTGTGCTACAGTACGGAGTCACCTAGTGCAG”, the binding signal is 4210 fluorescence intensity (a.u.).

For “CTTTCTTTCTCGTCGTCACCCAGTTGCCGCTGATGCAATTCGGAGTCACCTAGTGCAG”, the binding signal was 5070 fluorescence intensity (a.u.).

For “CACATACTAGCGGCTAGTTGACGTGTCTCTAATCTTTTGACGGAGTCACCTAGTGCAG”, the binding signal was 12100 fluorescence intensity (a.u.).

As for “GATTCACCACGTTGCCCAACCTGATGTGTGCACGTCAGAACGGAGTCACCTAGTGCAG”, the binding signal was 7330 fluorescence intensity (a.u.).

Turning to “GCTCCTCTACACCCACCCATGGCCGGTCGAGAAGAGAGCCCGGAGTCACCTAGTGCAG”, the binding signal was 3260 fluorescence intensity (a.u.).

On to “CCATTGATCAATGTATACGTTTCCTATATGTGTTTATATTCGGAGTCACCTAGTGCAG”, for which the binding signal is 3470 fluorescence intensity (a.u.).

As for “CTCATGAGATGCTAGCTGAATCAGCAAGGAAATCTGCTATCGGAGTCACCTAGTGCAG”, the binding signal was 4720 fluorescence intensity (a.u.).

On to “AAAATCTTTAATTGTCATGAGTTCAAACAGTACAATAGATCGGAGTCACCTAGTGCAG”, for which the binding signal is 10200 fluorescence intensity (a.u.).

Consider “TAAAGTTTTGGGATGGGATGTAAACAGGGCAAAGTCAAACCGGAGTCACCTAGTGCAG”, for which the binding signal was 3340 fluorescence intensity (a.u.).

As to “GGCATGTTACTCTGTTCCATCATGATTGGACCAAAGAAATCGGAGTCACCTAGTGCAG”, the binding signal was 4020 fluorescence intensity (a.u.).

In the case of “TGCCGGGGATTGCTGCGGATAGGTGCACGTGCTGCCGCCGCGGAGTCACCTAGTGCAG”, the binding signal was 3700 fluorescence intensity (a.u.).

For the sequence “AATGCTAACCGGCTAAGAGGAGGTGGACTGTTGGTCTATACGGAGTCACCTAGTGCAG”, the binding signal is 3970 fluorescence intensity (a.u.).

With “TGCTATGATGGAGTAATGGTTGAGTCATTGGGCAAAAGCTCGGAGTCACCTAGTGCAG”, the binding signal is 6460 fluorescence intensity (a.u.).

Consider “CGTGGCAGAGGACGCGTGGACGCTCCGCGATGATGACCCTCGGAGTCACCTAGTGCAG”, for which the binding signal is 3390 fluorescence intensity (a.u.).

On to “ACAAATAATCTTGTATCAACAGCTTGTCACGAGATCATTTCGGAGTCACCTAGTGCAG”, for which the binding signal was 3330 fluorescence intensity (a.u.).

For the sequence “GTCGCACCGACTAGACTACGCCACTCGATTTGACGTCGGCCGGAGTCACCTAGTGCAG”, the binding signal is 4090 fluorescence intensity (a.u.).

Take “ATGCTACACTCTGCTTACTACTTACAGTTGCTGACCGTAGCGGAGTCACCTAGTGCAG”: the binding signal is 4220 fluorescence intensity (a.u.).

For the sequence “TACTTGTCAGGCACTGAATGTCTGAACTCTGAAACTCTCTCGGAGTCACCTAGTGCAG”, the binding signal is 3240 fluorescence intensity (a.u.).

Turning to “ATTATCGTCCAGATACGAAGCCCCACGTCATCCTGCCCATCGGAGTCACCTAGTGCAG”, the binding signal is 15200 fluorescence intensity (a.u.).

For the sequence “GGCGGCCGCCACGCTGGACGTACGGTCGTACTGGACCAGCCGGAGTCACCTAGTGCAG”, the binding signal is 6800 fluorescence intensity (a.u.).

For “TATCACTGTAGTTGCATGCTAAGATCCAAATGCCACATACCGGAGTCACCTAGTGCAG”, the binding signal was 3530 fluorescence intensity (a.u.).

For the sequence “TGCGGGATGGCTGGTTGGTGTGCGTGTGCTTCGGTGCGTTCGGAGTCACCTAGTGCAG”, the binding signal was 3620 fluorescence intensity (a.u.).

Turning to “GAGAGCGAGAGGCCACCTGTCGCCGTGCCGCGTCGGCAAGCGGAGTCACCTAGTGCAG”, the binding signal was 8060 fluorescence intensity (a.u.).

As for “GGAGTCCCTTGCCGAGGAGATGACGATGGCTAGCGGTTGTCGGAGTCACCTAGTGCAG”, the binding signal was 4130 fluorescence intensity (a.u.).

As to “GAAAGAAAATACGTGCCACCGCATCTATAAATGGACAAGCCGGAGTCACCTAGTGCAG”, the binding signal was 3800 fluorescence intensity (a.u.).

As to “AGAATCCAGAGTAACAGTGTCACATCCTGATTTTCGTTTTCGGAGTCACCTAGTGCAG”, the binding signal was 3600 fluorescence intensity (a.u.).

As for “AATTTTCATGCCGTCACATCGAATATTTGGACACATGCATCGGAGTCACCTAGTGCAG”, the binding signal is 4390 fluorescence intensity (a.u.).

For the sequence “CACATTCCGTCCTGCTACCGTCACGTCTCCATAAAGCCATCGGAGTCACCTAGTGCAG”, the binding signal was 3190 fluorescence intensity (a.u.).

Turning to “GTATTATATTATTAATTAATCGCCGTCACCTCGTCGCCATCGGAGTCACCTAGTGCAG”, the binding signal is 3760 fluorescence intensity (a.u.).

In the case of “ATCTCGGATACAAAATAAATGTACAAGGCCACACATCATGCGGAGTCACCTAGTGCAG”, the binding signal is 4060 fluorescence intensity (a.u.).

As for “GGATAGCATCATAGCAGATGTTGGCGTCTCTGTTCACAAACGGAGTCACCTAGTGCAG”, the binding signal was 3300 fluorescence intensity (a.u.).

On to “GGAACACCGTCACATAGGTGCCAAGTCAGTAAAACCTCCCCGGAGTCACCTAGTGCAG”, for which the binding signal was 6490 fluorescence intensity (a.u.).

For “GGCCATAGGCTCAAGCGCACGTCAGTTGCCATAAATTGGCCGGAGTCACCTAGTGCAG”, the binding signal was 3650 fluorescence intensity (a.u.).

As for “GATGACGAACTCGCCGCGGCCGGTGTACTCGACGTGGCCGCGGAGTCACCTAGTGCAG”, the binding signal is 4310 fluorescence intensity (a.u.).

In the case of “CTACTCTTGCATACACAACACAACTACTCCCAAGTCCCCACGGAGTCACCTAGTGCAG”, the binding signal was 20400 fluorescence intensity (a.u.).

In the case of “GGAATAATGATTAATCGATGACAGTGGCAAAAGCTATCGGCGGAGTCACCTAGTGCAG”, the binding signal was 3670 fluorescence intensity (a.u.).

Take “ATCGCTGTCCAGTTTCGCGCCACGTGGCAATTGGCAAAGACGGAGTCACCTAGTGCAG”: the binding signal is 8470 fluorescence intensity (a.u.).

In the case of “TTGAGCAGCCTCCCTTCCCCGGCGAGCAGCCCCGCCGCCGCGGAGTCACCTAGTGCAG”, the binding signal was 3720 fluorescence intensity (a.u.).

With “CGAGGCCGCGGCCGCTGCTCAGTTCAGGCTCAGCTCGAGGCGGAGTCACCTAGTGCAG”, the binding signal was 3420 fluorescence intensity (a.u.).

On to “TCGCTTGAATCTACGAGCATTTCGGTATCCTCCCCAAATTCGGAGTCACCTAGTGCAG”, for which the binding signal is 3220 fluorescence intensity (a.u.).

Turning to “CGTGTTATACGTGTATGGCAAATTAGGTAACAGATTAATGCGGAGTCACCTAGTGCAG”, the binding signal is 3820 fluorescence intensity (a.u.).

Regarding “CGTATTTGATCCTAGTCAGCCACCCCTGCTTCCTTCTTCTCGGAGTCACCTAGTGCAG”, the binding signal was 12100 fluorescence intensity (a.u.).

The values above are taken from article PMC7819943, “Rice protein-binding microarrays: a tool to detect cis-acting elements near promoter regions in rice”.
